Assay results reported in PubChem BioAssay AID1347076 (National Center for Advancing Translational Sciences (NCATS), 2019).
Screen size: about 400,000 compounds; about 13,000 (3.2%) were called active. Inconclusive means that the source gave no clear call. Such entries were picked first, then a sample of the others. Calls come from the whole dose curve; as a rule, active = well fitted cell-killing curve with a large enough effect; inconclusive = small, poorly fitted or top-dose-only effect, or effect the other way; inactive = flat fitted curve, though single readings scatter. Where the call is inconclusive, the potency comes from a doubtful curve fit.

test: qHTS assay for MDR1-selective chemotherapeutics: Primary screen using the drug-selected MDR subline cells KB-V1; conditions: KB-V1 MDR cells viability, CellTiter-Glo, 72 h; activity change, negative = cytotoxicity: at 46.1 µM (top of the series); note: nearly all actives have a fitted effect of over 60% in size
Outline: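 Cells of the MDR subline KB-V1 are plated, dosed with compound at multiple concentrations, and incubated 72 h at 37 degrees C; CellTiter-Glo is then added and luminescence read after 10 min.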
% is set by controls: 0 for no effect and ±100 for the full control effect; potency is the fitted concentration of half-maximal effect.

Q: With `Cc1cccc(C)c1NC(=O)CN1CCN(c2ccc(C(F)(F)F)cn2)CC1` as the compound, how does the “activity change, negative = cytotoxicity” value read?
A: inactive: 8.26%

Q: For `COc1ccccc1CCC(=O)OCC(=O)Nc1ccc(C(N)=O)cc1`, which “activity change, negative = cytotoxicity” value is on record?
A: inactive: 6.9%

Q: With `Cc1cc(C(F)F)nn1CC(=O)Nc1cc([N+](=O)[O-])ccc1F` as the compound, how does the activity change, negative = cytotoxicity read?
A: inconclusive: -5.42%

Q: For `CCCCOc1ccc(-c2cc(C(=O)NNC(=S)NCC)c3ccccc3n2)cc1`, which Potency is on record?
A: active: 6.51 µM

Q: Which Potency does the source give for `CC(C)CCNc1ncnc2c1nnn2Cc1ccccc1Cl` here?
A: active: 13 µM

Q: For `Cc1ccc(S(=O)(=O)CCC(=O)N(CCCN2CCOCC2)c2nc3ccccc3s2)cc1`, which Potency is on record?
A: inconclusive: 29.1 µM [cytotoxic, single point]

Q: For `CC(OC(=O)c1ccc2ncsc2c1)C(=O)N(C)C1CCCCC1` (stereo unspecified), which “activity change, negative = cytotoxicity” value is on record?
A: inactive: -18.5%

Q: For `COC(=O)c1ccccc1NC(=O)N1CCN(S(C)(=O)=O)CC1`, which Potency is on record?
A: inconclusive: 29.1 µM [rising, single point]

Q: Which Potency does the source give for `Cc1ccccc1CN(C)CC(=O)Nc1cccc(S(=O)(=O)N(C)c2ccccc2)c1` here?
A: inconclusive: 7.31 µM [cytotoxic, partial curve]

Q: Which “activity change, negative = cytotoxicity” value does the source give for `Cc1cccc(-c2cnc(C(O)c3cc(C)cc(C)c3)[nH]2)c1` (stereo unspecified) here?
A: inactive: -1.95%

Q: With `COC1=C(Br)C(=O)c2ncccc2C1=O` as the compound, how does the Potency read?
A: inconclusive: 29.1 µM [cytotoxic, single point]

Q: Which “activity change, negative = cytotoxicity” value does the source give for `COc1ccc(-c2oc(NC(=O)CSc3ncn[nH]3)c(C#N)c2-c2ccc(OC)cc2)cc1` here?
A: inactive: 3.92%

Q: For `Cc1ccc(OCc2nc3ccccc3n2C(C(=O)NC(C)(C)C)c2ccccc2)cc1` (stereo unspecified), which Potency is on record?
A: inconclusive: 18.4 µM [cytotoxic, single point]

Q: For `Cc1nc2nc(SCC(=O)NCc3ccccc3)nn2c(C)c1Cc1ccccc1Cl`, which activity change, negative = cytotoxicity is on record?
A: inconclusive: -15.3%

Q: Which Potency does the source give for `CN1CC(c2ccc(C#N)cc2)C2(COc3ccccc3C2=O)C12C(=O)Nc1ccccc12` (stereo unspecified) here?
A: inconclusive: 29.1 µM [cytotoxic, single point]

Q: With `O=C(COc1ccccc1)Nc1ccc(C(=O)OCc2cc(=O)n3nc(C4CC4)sc3n2)cc1` as the compound, how does the Potency read?
A: inconclusive: 23.1 µM [rising, partial curve]

Q: Which “activity change, negative = cytotoxicity” value does the source give for `CCOC(=O)C1=C(CSCC(=O)OC)NC(=O)NC1c1cc(C)ccc1C` (stereo unspecified) here?
A: inactive: -1.41%

Q: With `CC(C)NC(=S)N1CCCN(c2ncccc2[N+](=O)[O-])CC1` as the compound, how does the “activity change, negative = cytotoxicity” value read?
A: inactive: 4.91%

Q: For `CCC/C=N/NC(=O)c1[nH]c2c([N+](=O)[O-])cccc2c1C`, which “activity change, negative = cytotoxicity” value is on record?
A: inactive: 0%

Q: Which Potency does the source give for `CCN(CC)CCNC(=O)C1CCN(S(=O)(=O)c2c(C)noc2/C=C/c2ccccc2F)CC1` here?
A: inconclusive: 29.1 µM [rising, single point]

Q: With `CCN(CC)c1ccc2cc(-c3nnc(-c4ccncc4)o3)c(=O)oc2c1` as the compound, how does the “activity change, negative = cytotoxicity” value read?
A: inactive: -3.38%

Q: Which “activity change, negative = cytotoxicity” value does the source give for `NC(=S)N/N=C/c1ccccc1OCc1cccc(Cl)c1` here?
A: inactive: 0%

Q: Which Potency does the source give for `Cc1ccc(OCCSc2nc3ccc(NC(=O)COc4ccc(F)cc4)cc3s2)cc1` here?
A: inconclusive: 20.6 µM [cytotoxic, single point]

Q: Which Potency does the source give for `COc1ccc(COC(=O)C2=C(C)NC(=O)NC2c2ccc(OC)cc2)cc1` (stereo unspecified) here?
A: inconclusive: 29.1 µM [cytotoxic, single point]

Q: Which Potency does the source give for `O=S1(=O)CCC(NC(=S)N2CCCCCC2)C1` (stereo unspecified) here?
A: inconclusive: 23.1 µM [rising, partial curve, poor fit]

Q: With `COc1ccc(N(CC(=O)NCc2cccs2)S(=O)(=O)c2ccc(F)cc2)cc1` as the compound, how does the Potency read?
A: inconclusive: 7.31 µM [cytotoxic, partial curve]

Q: For `CCn1c(SCC(=O)O)nnc1-c1ccc2[nH]c(C)c(C)c2c1`, which “activity change, negative = cytotoxicity” value is on record?
A: inactive: -5.19%

Q: With `CCCCn1c(N)c(N(CCOC)C(=O)CSc2nnc(-c3ccco3)n2CC)c(=O)[nH]c1=O` as the compound, how does the “activity change, negative = cytotoxicity” value read?
A: inactive: -16.3%

Q: For `O=C(Nc1nccs1)c1cc([N+](=O)[O-])ccc1Cl`, which Potency is on record?
A: inconclusive: 18.4 µM [cytotoxic, single point]

Q: For `N#Cc1cnc(Nc2ccc(F)cc2)nc1N`, which Potency is on record?
A: inconclusive: 29.1 µM [cytotoxic, single point]

Q: Which Potency does the source give for `CCOC(=O)[C@]12CCCC=C1N(Cc1ccc(Cl)cc1Cl)C(=O)[C@H](CC(=O)N1CCN(C(=O)c3ccco3)CC1)C2` here?
A: inconclusive: 14.6 µM [cytotoxic, partial curve]

Q: With `O=C(COc1c(CO)cc(Br)cc1CO)NC1CCCc2ccccc21` (stereo unspecified) as the compound, how does the Potency read?
A: inconclusive: 18.4 µM [cytotoxic, single point]

Q: With `COC(=O)CN1C(=O)[C@H]2[C@@H](C3CC3)N3C(=O)CN(CCO)C(=O)[C@@]3(Cc3ccccc3)[C@H]2C1=O` as the compound, how does the Potency read?
A: inconclusive: 32.6 µM [cytotoxic, single point]

Q: With `CCc1nn(CC(=O)NCCCN(Cc2ccccc2)C(C)C)c(=O)c2cc3sccc3n12` as the compound, how does the Potency read?
A: inconclusive: 9.2 µM [cytotoxic, partial curve]

Q: With `O=C(Cc1ccccc1F)Nc1ccc(SC(F)F)cc1` as the compound, how does the “activity change, negative = cytotoxicity” value read?
A: inactive: -0.612%

Q: With `CC[C@@H]1Cc2[nH][nH]c(=O)c2[C@H](CC(C)C)O1` as the compound, how does the Potency read?
A: inconclusive: 0.731 µM [rising, full curve, poor fit]

Q: Which Potency does the source give for `CCc1nc2ccc(C(=O)N3CCN(CC)CC3)cc2nc1CC` here?
A: inconclusive: 0.651 µM [rising, full curve]

Q: Which “activity change, negative = cytotoxicity” value does the source give for `COc1ccc(C(c2nnnn2Cc2ccccc2)N2CCN(c3nc4ccccc4s3)CC2)cc1OC` (stereo unspecified) here?
A: inactive: -21.6%

Q: For `CCCCn1nnnc1C(c1cc2ccccc2o1)N(C)Cc1ccc(Cl)c(Cl)c1` (stereo unspecified), which “activity change, negative = cytotoxicity” value is on record?
A: inactive: -11%

Q: Which Potency does the source give for `c1nnc(NC2=NCCC2)s1` here?
A: inconclusive: 29.1 µM [rising, single point]

Q: For `COc1ccc(-c2cc3nc(-c4ccccc4)cc(N4CCCC(O)C4)n3n2)cc1` (stereo unspecified), which “activity change, negative = cytotoxicity” value is on record?
A: inactive: -6.02%

Q: For `CCn1nccc1C(=O)Nc1ccc(Cl)c(Cl)c1`, which “activity change, negative = cytotoxicity” value is on record?
A: inactive: 3.02%

Q: With `Cc1cccc(N2CCN(C(=O)Cc3cn(C)c4ccccc34)CC2)c1C` as the compound, how does the Potency read?
A: active: 18.4 µM

Q: For `Cc1ccc(C)c(CN2CCC(CNC(=O)Cn3ncc4c([nH]c5ccccc54)c3=O)CC2)c1`, which Potency is on record?
A: inconclusive: 20.6 µM [rising, single point]

Q: For `COc1cc(CNc2ccc3[nH]c(=O)[nH]c3c2)cc(Br)c1OCC(=O)NC(C)(C)C`, which “activity change, negative = cytotoxicity” value is on record?
A: inactive: 3.7%

Q: Which Potency does the source give for `CCN(CC)CCNC(=O)c1ccc(CS(=O)(=O)c2ccccc2C)o1` here?
A: inconclusive: 0.0082 µM [rising, full curve, poor fit]

Q: Which “activity change, negative = cytotoxicity” value does the source give for `O=C(CN1C(=O)NC2(CCCCC2)C1=O)N1CCN(S(=O)(=O)c2ccccc2)CC1` here?
A: inactive: 29.1%

Q: For `O=C(NC(c1ccc(-c2ccccc2)cc1)c1cnccn1)C1CCN(Cc2cccs2)CC1` (stereo unspecified), which “activity change, negative = cytotoxicity” value is on record?
A: inactive: -0.267%

Q: Which Potency does the source give for `CCC(C)(C)NC(=O)C(c1ccc(C)cc1)N(Cc1cccs1)C(=O)c1ccc2c(c1)OCCO2` (stereo unspecified) here?
A: active: 18.4 µM

Q: For `Cc1ccc(-c2nnc(SCC(=O)N/N=C/c3ccccc3C(=O)O)n2-c2ccc(C)cc2)cc1`, which “activity change, negative = cytotoxicity” value is on record?
A: inactive: -2.48%

Q: With `Cc1ccccc1C(O)c1ccccn1` (stereo unspecified) as the compound, how does the activity change, negative = cytotoxicity read?
A: inconclusive: -10.5%

Q: With `Cc1ccnc2c(N3C(=O)C4C5C=CC(C5)C4(C)C3=O)cccc12` (stereo unspecified) as the compound, how does the activity change, negative = cytotoxicity read?
A: inconclusive: 14.3%

Q: Which Potency does the source give for `Cc1ccc(C(=O)Sc2cccccc2=O)cc1` here?
A: active: 2.59 µM

Q: With `O=C(Nc1cccnc1)c1ccc(COc2ccccc2Br)cc1` as the compound, how does the Potency read?
A: inconclusive: 29.1 µM [cytotoxic, single point]

Q: With `CC(NC(=O)NC1CCCCC1)C(c1cccs1)N1CCN(c2ccccc2)CC1` (stereo unspecified) as the compound, how does the “activity change, negative = cytotoxicity” value read?
A: inactive: 5.75%

Q: Which “activity change, negative = cytotoxicity” value does the source give for `COc1ccc(-c2nc(-c3ccc(NC(=O)c4ccc(Br)o4)cc3)no2)cc1OC` here?
A: inactive: -0.817%

Q: With `CC(C)(O)CN(C(=O)C(c1ccccc1)c1ccccc1)C1CCCCC1` as the compound, how does the Potency read?
A: active: 13 µM

Q: For `CC(=O)Nc1ccnn1C1CCN(C(=O)c2cccc(C)c2C)CC1`, which “activity change, negative = cytotoxicity” value is on record?
A: inactive: 26.2%

Q: Which “activity change, negative = cytotoxicity” value does the source give for `O=C(Cn1nc(N2CCN(c3ccccc3)CC2)ccc1=O)NCc1cccc(Cl)c1` here?
A: inactive: 1%

Q: Which “activity change, negative = cytotoxicity” value does the source give for `CS(=O)(=O)Nc1ccc(C2=NN(C(=O)CCCC(=O)O)C(c3cccs3)C2)cc1` (stereo unspecified) here?
A: inactive: 11.7%

Q: With `CC(=O)N1C(=O)N(C(C)=O)C2C1N(C)C(=O)N2C(C)=O` (stereo unspecified) as the compound, how does the “activity change, negative = cytotoxicity” value read?
A: inactive: -6.82%

Q: With `CCCNC(=O)c1cc2c(c(-c3cccc(-c4ccc(C#N)cc4)c3)n1)[C@@H](CCO)N(C(=O)CC)C2` as the compound, how does the Potency read?
A: inconclusive: 18.4 µM [cytotoxic, partial curve]

Q: Which Potency does the source give for `Cc1ccc(S(=O)(=O)CCc2nc3ccccc3s2)cc1` here?
A: inconclusive: 0.58 µM [rising, full curve]

Q: For `CCN1C(=O)[C@@H]2[C@@H](c3ccc(-c4ccc(Cl)c(Cl)c4)c(OC)c3)N3CCC[C@@]3(C(=O)OC)[C@@H]2C1=O`, which Potency is on record?
A: inconclusive: 29.1 µM [cytotoxic, single point]

Q: With `COc1ccccc1CNC(=O)CN1CCN(c2ccc(C(C)=O)cc2)CC1` as the compound, how does the Potency read?
A: inconclusive: 10.3 µM [cytotoxic, partial curve]

Q: Which Potency does the source give for `O=c1/c(=C\c2ccc3c(c2)OCO3)sc2n1CCCN=2` here?
A: active: 13 µM

Q: For `Cc1cc([N+](=O)[O-])nn1CC(=O)N/N=C/c1ccccc1Br`, which Potency is on record?
A: inconclusive: 1.3 µM [rising, full curve]

Q: Which Potency does the source give for `Cc1cc(C)nc(SCc2csc(-c3ccccc3)n2)n1` here?
A: inconclusive: 14.6 µM [cytotoxic, partial curve]

Q: Which Potency does the source give for `Cc1ccc(C(=O)Nc2nc3ccccc3[nH]2)cc1` here?
A: inconclusive: 16.4 µM [cytotoxic, partial curve]

Q: For `O=C(Nc1ccc(Cl)c(S(=O)(=O)N2CCOCC2)c1)c1ccc(OCC2CCCO2)cc1` (stereo unspecified), which “activity change, negative = cytotoxicity” value is on record?
A: inactive: 0%

Q: For `O=C(NC1CCCCC1)N1CCCC(c2nc(-c3ccc(S(=O)(=O)N4CCCC4)cc3)no2)C1` (stereo unspecified), which Potency is on record?
A: active: 3.66 µM

Q: With `CC(C)(C)c1ccc(OCC(O)CSc2ncn[nH]2)cc1` (stereo unspecified) as the compound, how does the “activity change, negative = cytotoxicity” value read?
A: inactive: -28%

Q: Which Potency does the source give for `Cc1ccccc1S(=O)(=O)Cc1ccc(C(=O)NCc2ccccc2)o1` here?
A: inconclusive: 2.31 µM [cytotoxic, full curve]

Q: For `O=C1N(Cc2cccc(Cl)c2)C[C@@H]2C[C@@H](c3cccn3-c3nccs3)N3CCC[C@@]123`, which “activity change, negative = cytotoxicity” value is on record?
A: inactive: -16.6%

Q: For `O=C(CCc1ccccc1)NNC(=O)c1ccncc1`, which Potency is on record?
A: inconclusive: 29.1 µM [rising, single point]

Q: Which Potency does the source give for `C/C(N)=C(\C#N)C(=O)NCc1ccccn1` here?
A: inconclusive: 25.9 µM [rising, single point]
